Experimental data: publication PMC9634614
No constants are given. Whether binding was seen depends on the method and setting. Blank lines part the entries; values can stand above or below the binder they belong to.

Columns and labels:
Test in all cases: SEC; gel filtration of the recombinant NHL domains without the expression tags; purification SEC on Superdex s75 (TRIM2, TRIM3) or s200 (TRIM71) in 20 mM HEPES pH 7.5, 200 mM NaCl, 0.5 mM TCEP; both purified
[1] = target: NHL domain of human TRIM71 (aa 590–868) (human) (UniProt Q2Q1W2)
[2] = target: NHL domain of human TRIM3 (aa 466–744) (human) (UniProt O75382)
[3] = target: NHL domain of human TRIM2 (aa 466–744) (human) (UniProt Q9C040)

binding [1]: no binding
B1: NHL domain of human TRIM71 (aa 590–868) (domain or fragment, UniProt Q2Q1W2 590-868)
chain: GLPGLSFGSEGDSDGKLCRPWGVSVDKEGYIIVADRSNNRIQVFKPCGAFHHKFGTLGSRPGQFDRPAGVACDASRRIVVADKDNHRIQIFTFEGQFLLKFGEKGTKNGQFNYPWDVAVNSEGKILVSDTRNHRIQLFGPDGVFLNKYGFEGALWKHFDSPRGVAFNHEGHLVVTDFNNHRLLVIHPDCQSARFLGSEGTGNGQFLRPQGVAVDQEGRIIVADSRNHRVQMFESNGSFLCKFGAQGSGFGQMDRPSGIAITPDGMIVVVDFGNNRILVF

binding [2]: no binding
B2: NHL domain of human TRIM3 (aa 466–744) (domain or fragment, UniProt O75382 466-744)
chain: NPIEDELVFRVGSRGREKGEFTNLQGVSAASSGRIVVADSNNQCIQVFSNEGQFKFRFGVRGRSPGQLQRPTGVAVDTNGDIIVADYDNRWVSIFSPEGKFKTKIGAGRLMGPKGVAVDRNGHIIVVDNKSCCVFTFQPNGKLVGRFGGRGATDRHFAGPHFVAVNNKNEIVVTDFHNHSVKVYSADGEFLFKFGSHGEGNGQFNAPTGVAVDSNGNIIVADWGNSRIQVFDSSGSFLSYINTSAEPLYGPQGLALTSDGHVVVADAGNHCFKAYRYLQ

binding [3]: no binding
B3: NHL domain of human TRIM2 (aa 466–744) (domain or fragment, UniProt Q9C040 466-744)
chain: NPIEDDLIFRVGTKGRNKGEFTNLQGVAASTNGKILIADSNNQCVQIFSNDGQFKSRFGIRGRSPGQLQRPTGVAVHPSGDIIIADYDNKWVSIFSSDGKFKTKIGSGKLMGPKGVSVDRNGHIIVVDNKACCVFIFQPNGKIVTRFGSRGNGDRQFAGPHFAAVNSNNEIIITDFHNHSVKVFNQEGEFMLKFGSNGEGNGQFNAPTGVAVDSNGNIIVADWGNSRIQVFDGSGSFLSYINTSADPLYGPQGLALTSDGHVVVADSGNHCFKVYRYLQ
